Measured values: patent US9096646B2, “CXCR4 receptor compounds” (priority 2008, dated 2015)
At least one compound was matched to its structure with a doubt left. Peptide text beside a SMILES is read from it. * marks the point of attachment. Palmitoyl = CCCCCCCCCCCCCCCC(=O)*

By UniProt entry, the sequences of proteins in these tests, tags left out.
UniProt P61073, whole entry: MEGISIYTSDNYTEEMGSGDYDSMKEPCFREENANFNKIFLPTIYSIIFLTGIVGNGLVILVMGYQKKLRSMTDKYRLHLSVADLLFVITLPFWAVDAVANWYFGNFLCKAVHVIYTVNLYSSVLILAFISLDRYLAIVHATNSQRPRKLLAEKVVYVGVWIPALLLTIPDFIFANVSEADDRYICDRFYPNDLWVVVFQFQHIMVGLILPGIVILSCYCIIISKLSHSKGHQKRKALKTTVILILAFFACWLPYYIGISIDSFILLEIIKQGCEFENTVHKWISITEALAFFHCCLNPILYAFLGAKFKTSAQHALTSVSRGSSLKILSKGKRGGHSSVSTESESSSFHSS

What was measured:
CXCR4 [1] = target: T1, CXCR4 (Homo sapiens, UniProt P61073); assay: Chemotaxis assay using SUP B-15 cells; type: cell-based; parameters: A similar procedure was followed for chemotaxis using SUP B-15 cells; endogenous in cells; host or cells: SUP B-15 cells; conditions: Table 18, i1 loop, drug conc 1.0 uM, peak test comp./peak control
Description: Chemotaxis assays were utilized to determine the effect of compound on the directed migration of cells in response to chemokine. Cells that express a receptor of interest were placed in the upper chamber of a Transwell chemotaxis plate (Corning) and allowed to migrate through a polycarbonate membrane to a lower chamber containing the appropriate receptor-specific ligand. To test for antagonist or potentiating activity, cells were mixed with the desired concentration of compound prior to addition to the upper chamber. Conversely, agonist activity was determined by adding compound in the bottom chamber only without endogenous chemokine. The effect of compound is quantified by several parameters, including the extent of maximum response, the shift of agonist dose-response curves, and the area under the curve. […]
To initiate cell migration, the assembled transwell plate was placed in a 37° C., […] incubator for a specified time interval, typically between 30 and 120 minutes. […] To quantify migrated cells, plates were thawed at 37° C. in a humidified chamber, and then a sample volume was removed from each well and mixed with an equal volume of CyQuant (Invitrogen) working solution in opaque plates. The fluorescence intensity of each well represents the DNA content and is directly proportional to cell number. […]

CXCR4 [2] = target: T1, CXCR4; assay: Chemotaxis assay, effect on SDF1-a (CXCL12) induced migration of CCRF-CEM cells; type: cell-based; parameters: a human T-cell ALL line that endogenously expresses CXCR4; endogenous in cells; host or cells: CCRF-CEM (human T-cell ALL line); conditions: Table 18, i1 loop, drug conc 1.0 uM, peak test comp./peak control

## CCCCCCCCCCCCCCCC(=O)N[C@@H](CCSC)C(=O)NCC(=O)N[C@@H](Cc1ccc(O)cc1)C(=O)N[C@@H](CCC(N)=O)C(=O)N[C@@H](CCCCN)C(=O)N[C@@H](CCCCN)C(=O)N[C@@H](CC(C)C)C(=O)N[C@@H](CCCNC(=N)N)C(=O)N[C@@H](CO)C(=O)N[C@@H](CCSC)C(=O)N[C@H](C(=O)N[C@@H](CC(=O)O)C(=O)N[C@@H](CCCCN)C(=O)N[C@@H](Cc1ccc(O)cc1)C(=O)N[C@@H](CCCNC(=N)N)C(=O)N[C@@H](CC(C)C)C(N)=O)[C@@H](C)O [Compound 38, Pal-MGYQKKLRSMTDKYRL-amide] (Palmitoyl-MGYQKKLRSMTDKYRL-NH2)
CXCR4 [1]
  Peak Ratio: 0.2
CXCR4 [2]
  Peak Ratio: 0.2
